Source: publication doi:10.1101/2023.08.16.553474
For part of these data: The comparison behind a weaker result is the experiment's own reference, which may not be listed here. Tags and fusion partners may be left off the protein sequences shown. For part of these data: Construct, isoform or probe ends are uncertain for at least one entry. For part of these data: At least one verdict rests on a figure or table, not on a statement of the authors.

What was measured:
Experiment in all cases: fluorescence anisotropy
[1] = target: T1, MYCN FL (UniProt P04198); conditions: residues 1-464; letters put together from the description
T1 sequence (looked up): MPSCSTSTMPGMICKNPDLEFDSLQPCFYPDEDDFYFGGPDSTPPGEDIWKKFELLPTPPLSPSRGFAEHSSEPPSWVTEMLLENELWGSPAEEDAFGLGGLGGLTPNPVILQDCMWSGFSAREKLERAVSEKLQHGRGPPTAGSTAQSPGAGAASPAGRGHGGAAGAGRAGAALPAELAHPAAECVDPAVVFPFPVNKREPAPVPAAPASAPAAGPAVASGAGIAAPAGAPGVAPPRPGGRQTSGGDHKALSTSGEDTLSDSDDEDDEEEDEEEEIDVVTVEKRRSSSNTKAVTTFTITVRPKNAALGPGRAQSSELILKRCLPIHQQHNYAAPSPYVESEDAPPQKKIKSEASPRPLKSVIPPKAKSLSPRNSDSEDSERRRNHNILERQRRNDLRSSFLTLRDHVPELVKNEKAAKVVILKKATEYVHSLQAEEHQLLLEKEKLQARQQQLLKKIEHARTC

[2] = target: T2, MYCN 1-154 (UniProt P04198); conditions: residues 1-154
T2 sequence (looked up): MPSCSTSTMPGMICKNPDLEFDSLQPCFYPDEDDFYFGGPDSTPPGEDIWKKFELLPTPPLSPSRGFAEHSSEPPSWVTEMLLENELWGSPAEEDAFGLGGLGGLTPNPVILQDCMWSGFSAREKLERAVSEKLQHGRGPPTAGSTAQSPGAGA

[3] = target: T3, MYCN 1-154 dMBI del45-65 (UniProt P04198); conditions: residues 1-154
T3 sequence (looked up): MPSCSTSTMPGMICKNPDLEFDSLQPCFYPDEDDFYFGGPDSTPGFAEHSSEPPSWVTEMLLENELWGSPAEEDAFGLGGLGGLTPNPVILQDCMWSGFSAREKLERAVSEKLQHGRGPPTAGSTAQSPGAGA

Sequence: TGCTGGGATGGTCATGGTGGGTGACCCTGGGATGGCCGCGGTGGGTGACCCTGGAATGGT (double strand) [UGhigh dsDNA]
- binding result [1]: binds more weakly

Sequence: UGCUGGGAUGGUCAUGGUGGGUGACCCUGGGAUGGCCGCGGUGGGUGACCCUGGAAUGGU [UGhigh RNA]
- binding result [2]: binds
- binding result [3]: binds more weakly
